This passage reports IC50 results from paper PMC5402713 (Pain, 2017).

Amino acid sequences for entries named in this document (tags omitted). Residues count along the entry.
UniProt J9SQF3, 1-1709 isoform J9SQF3-12: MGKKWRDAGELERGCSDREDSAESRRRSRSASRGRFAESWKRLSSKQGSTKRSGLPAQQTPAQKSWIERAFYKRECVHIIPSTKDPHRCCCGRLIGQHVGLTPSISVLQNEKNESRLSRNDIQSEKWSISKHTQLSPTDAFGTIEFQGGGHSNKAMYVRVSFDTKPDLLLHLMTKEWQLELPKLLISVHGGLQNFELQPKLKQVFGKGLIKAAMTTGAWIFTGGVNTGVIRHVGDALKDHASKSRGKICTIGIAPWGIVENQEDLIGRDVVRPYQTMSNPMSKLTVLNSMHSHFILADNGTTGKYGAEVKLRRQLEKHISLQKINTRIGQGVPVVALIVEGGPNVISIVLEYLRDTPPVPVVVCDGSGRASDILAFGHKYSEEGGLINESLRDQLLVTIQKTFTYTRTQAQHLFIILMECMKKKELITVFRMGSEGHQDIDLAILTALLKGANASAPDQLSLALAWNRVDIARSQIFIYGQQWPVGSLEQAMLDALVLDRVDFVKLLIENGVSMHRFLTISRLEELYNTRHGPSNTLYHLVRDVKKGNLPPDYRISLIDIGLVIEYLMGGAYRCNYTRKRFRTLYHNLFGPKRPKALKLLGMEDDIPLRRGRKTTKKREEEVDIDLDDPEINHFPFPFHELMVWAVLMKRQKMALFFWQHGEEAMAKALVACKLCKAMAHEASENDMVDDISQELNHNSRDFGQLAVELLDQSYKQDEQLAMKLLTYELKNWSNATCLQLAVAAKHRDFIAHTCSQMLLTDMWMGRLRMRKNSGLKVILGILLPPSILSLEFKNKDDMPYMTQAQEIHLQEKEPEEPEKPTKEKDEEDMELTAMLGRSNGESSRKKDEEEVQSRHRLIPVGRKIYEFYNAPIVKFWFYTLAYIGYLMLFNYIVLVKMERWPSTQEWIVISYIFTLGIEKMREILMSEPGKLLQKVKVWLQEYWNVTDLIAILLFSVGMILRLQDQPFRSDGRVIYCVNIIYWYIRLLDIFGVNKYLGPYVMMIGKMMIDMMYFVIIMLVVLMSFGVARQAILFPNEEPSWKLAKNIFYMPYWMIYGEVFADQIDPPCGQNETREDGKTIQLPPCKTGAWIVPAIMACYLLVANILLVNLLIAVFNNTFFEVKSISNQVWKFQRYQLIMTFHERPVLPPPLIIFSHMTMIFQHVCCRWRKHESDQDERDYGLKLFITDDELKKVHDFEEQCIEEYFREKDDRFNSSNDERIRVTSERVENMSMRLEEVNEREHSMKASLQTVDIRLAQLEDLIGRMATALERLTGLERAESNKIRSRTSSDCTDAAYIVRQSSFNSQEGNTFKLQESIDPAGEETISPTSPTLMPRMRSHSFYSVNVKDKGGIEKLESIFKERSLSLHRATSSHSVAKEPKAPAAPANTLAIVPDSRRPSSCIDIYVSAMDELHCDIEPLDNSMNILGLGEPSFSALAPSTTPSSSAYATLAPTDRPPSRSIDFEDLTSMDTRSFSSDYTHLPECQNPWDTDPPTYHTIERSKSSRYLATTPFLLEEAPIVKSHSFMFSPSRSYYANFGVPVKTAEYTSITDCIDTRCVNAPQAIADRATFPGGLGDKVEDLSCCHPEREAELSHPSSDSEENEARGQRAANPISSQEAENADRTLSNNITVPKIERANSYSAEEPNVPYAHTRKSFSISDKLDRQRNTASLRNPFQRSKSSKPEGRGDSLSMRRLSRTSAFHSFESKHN

The target of the assay is mouse TRPM3α2 (Mus musculus, UniProt J9SQF3). It is filed as cell-based.

`CNCCCC12CCC(c3ccccc31)c1ccccc12` [maprotiline]: the IC50 – broadly, the concentration that inhibits the measured activity by half – was determined as 1300 ± 130 nM.
